Source: PubChem BioAssay AID485298 (National Center for Advancing Translational Sciences (NCATS), 2010)
Hit rate of the full screen: of about 320,000 compounds, about 740 (0.23%) were called active. The shares of active, inactive and inconclusive entries below differ from those in the screen. Calls come from the whole dose curve; as a rule, active = well fitted activation curve with a large enough effect; inconclusive = small, poorly fitted or top-dose-only effect; inactive = no such curve, though single readings can be large or run the other way. A potency beside an inconclusive call is a rough fit, not a confirmed value.

Assay: qHTS Assay for Small Molecule Inhibitors of Mitochondrial Division or Activators of Mitochondrial Fusion; note: nearly all actives have a fitted effect of over 45% in size;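 for growth rescue (activation): temperature-sensitive fusion mutants such as fzo1-1 at 37 °C on non-fermentable ethanol glycerol medium; % of control where 0% means no effect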
Details: S. cerevisiae fusion-defective mutant growth rescue, CellTiterGlo 48 h; growth rescue (activation): at 46.1 µM (top of the series) unless noted
Summary of the method: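 Yeast fusion mutant, YPEG (non-fermentable carbon), compound, 48 h at 37C non-permissive; CellTiterGlo added, 10 min RT, luminescence read. Rescued growth = division inhibition.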
Potency is the fitted concentration of half-maximal effect.

Row | SMILES | growth rescue (activation) | Potency
1 | Cc1occc1C(=O)Nc1nnc(-c2cccs2)s1 | inactive: 3.16% | –
2 | Cn1c(N)c(C(=O)COC(=O)CNS(=O)(=O)c2ccc(Cl)c(Cl)c2)c(=O)n(C)c1=O | inactive: -6.08% | –
3 | Cc1cccc(C)c1-n1c(C)cc(/C=C2\NC(=O)NC2=O)c1C | – | inconclusive: 12.6 µM [activator, partial curve]
4 | Cc1ccc(C(=O)c2ccccc2C(=O)OCC(=O)NCCc2ccc(Cl)cc2Cl)cc1 | – | inconclusive: 31.6 µM [activator, single point]
5 | CCOC(=O)C(C)(C)N(Cc1cccc(C)c1)S(=O)(=O)c1ccc(Cl)c([N+](=O)[O-])c1 | – | inconclusive: 35.5 µM [activator, single point]
6 | CCN1C(=O)[C@H]2[C@@H](c3ccc(-c4ccccc4)cc3)N3CCCC[C@@]3(C(=O)OC)[C@H]2C1=O | – | inconclusive: 15.8 µM [activator, single point]
7 | O=C(NCc1cccnc1)c1ccccc1NS(=O)(=O)c1ccccc1 | inactive: 2.28% | –
8 | COc1ccc(S(=O)(=O)N2CCOCC2)cc1NC(=O)c1ccccc1-c1ccc(C(F)(F)F)cc1 | – | inconclusive: 20 µM [activator, single point]
9 | c1ccc(-c2cc(-c3nc4ccccc4[nH]3)c3ccccc3n2)cc1 | – | inconclusive: 12.6 µM [activator, partial curve]
10 | C/C(=N\NC(=O)c1c[nH]c2ccccc12)c1ccccn1 | inactive: 8.44% | –
11 | COc1ccc(OC)c(/C=C/C(=O)c2ccc3c(c2)OCCO3)c1 | inactive: -12.3% | –
12 | Cc1nn(-c2ccccc2)c(C)c1C(=O)OCc1ccc(C#N)cc1 | – | inconclusive: 12.6 µM [activator, partial curve]
13 | C/C(CCc1ccc2c(c1)OCO2)=N\NC(=S)NC(C)C | inactive: 9.74% | –
14 | CC(NC(=O)Cc1ccc(NS(=O)(=O)c2cccc(C(F)(F)F)c2)cc1)c1ccccn1 (centres undefined) | – | inconclusive: 6.31 µM [activator, single point]
15 | CCOC(=O)C(C)Oc1ccc2c(-c3cccc([N+](=O)[O-])c3)cc(=O)oc2c1 (centres undefined) | – | inconclusive: 14.1 µM [activator, single point]
16 | CN1C(=O)/C(=C/c2cccc(Cl)c2)Sc2ccc(C(=O)NCc3cccnc3)cc21 | – | inconclusive: 5.62 µM [activator, single point]
17 | COc1cc(NC(=O)c2cccs2)ccc1NC(=O)c1ccco1 | – | inconclusive: 22.4 µM [activator, single point]
18 | COc1ccc(N2CCN(c3nc4c(c(=O)n(C)c(=O)n4C)n3Cc3ccccc3)CC2)cc1 | – | inconclusive: 12.6 µM [activator, partial curve]
19 | Cc1cccc(NC(=O)c2ccc(-c3ccccc3[N+](=O)[O-])o2)c1 | – | inconclusive: 14.1 µM [activator, partial curve]
20 | COc1cc2c(cc1NC(=O)c1cccc(F)c1)CCCC2 | – | inconclusive: 11.2 µM [activator, partial curve]
21 | CC(C)(C)c1ccc(S(=O)(=O)NCc2ccccn2)cc1 | inactive: 7.29% | –
22 | O=C(c1cc2ccccc2oc1=O)N(Cc1cccs1)Cc1ccccc1Cl | – | inconclusive: 22.4 µM [activator, single point]
23 | COc1ccccc1-c1nc(C#N)c(N2CCN(Cc3ccccc3)CC2)o1 | – | inconclusive: 15.8 µM [activator, partial curve]

Random excerpt: 3 entries already listed.
Row | SMILES | growth rescue (activation) | Potency
20 | COc1cc2c(cc1NC(=O)c1cccc(F)c1)CCCC2 | – | inconclusive: 11.2 µM [activator, partial curve]
9 | c1ccc(-c2cc(-c3nc4ccccc4[nH]3)c3ccccc3n2)cc1 | – | inconclusive: 12.6 µM [activator, partial curve]
3 | Cc1cccc(C)c1-n1c(C)cc(/C=C2\NC(=O)NC2=O)c1C | – | inconclusive: 12.6 µM [activator, partial curve]

More structures

Row | SMILES | growth rescue (activation) | Potency
24 | CCc1cc2c(-c3ccccc3)cc(=O)oc2cc1OCC(C)=O | – | inconclusive: 11.2 µM [activator, partial curve]
25 | Cc1ccc(N(C)C(=O)c2ccc3c(Cl)c4c(nc3c2)CCC4)cc1C | – | inconclusive: 35.5 µM [activator, single point]
26 | N=C1S/C(=C\c2ccc(O)cc2)C(=O)N1c1ccc(F)cc1 | inactive: -3.78% | –
27 | COc1ccc(-c2cc(C(=O)Nc3ccc(S(N)(=O)=O)cc3)c3ccccc3n2)cc1OC | inactive: -0.95% | –
28 | CCn1nc(C)c(CN2CCCC(C(=O)c3cccc(OC(C)C)c3)C2)c1C (centres undefined) | inactive: -1.25% | –
29 | Nc1c(C(=O)NC23CC4CC(CC(C4)C2)C3)sc2nc3c(c(C(F)(F)F)c12)CCC3 | inactive: -2.79% | –
30 | CCOC(=O)C1=NNC(C(=O)c2ccc(Cl)cc2)C1c1ccc(OC)cc1 (centres undefined) | – | inconclusive: 20 µM [activator, single point]
31 | Cc1ccc(C)c2nc(Cl)c(C3NC(=O)c4ccccc4N3)cc12 (centres undefined) | – | inconclusive: 31.6 µM [activator, single point]
32 | Cc1cc(Br)c(OCc2ccc(C(=O)N/N=C3\CC4CC=CC34)cc2)c(Br)c1 (centres undefined) | – | inconclusive: 14.1 µM [activator, single point]
33 | Cc1ccn2c(C(=O)NN=C3CCN(C)CC3)c(C)nc2c1 | – | inconclusive: 35.5 µM [activator, partial curve]
34 | O=C1NC(=S)S/C1=C\c1ccc(SCc2ccco2)o1 | – | inconclusive: 12.6 µM [activator, partial curve]
35 | COc1ccc(C(=O)Nc2ccc(Cl)c(S(=O)(=O)Nc3ccccc3OC)c2)cc1 | – | inconclusive: 35.5 µM [activator, single point]
36 | CCN1C(=O)[C@H]2[C@@H](c3ccc(-c4ccc(Cl)c(Cl)c4)cc3)N3CCCC[C@@]3(C(=O)OC)[C@H]2C1=O | – | inconclusive: 11.2 µM [activator, partial curve]
37 | Nc1ccccc1Nc1cc(-c2ccccc2)nn1-c1cccc(Cl)c1 | – | inconclusive: 22.4 µM [activator, single point]
38 | CC(C)CN(CC(C)C)S(=O)(=O)N1CCC(C(=O)NCc2ccccn2)CC1 | inactive: -0.0387% | –
39 | Cc1ccc(NC(=S)N/C(=N/S(=O)(=O)c2ccccc2)c2ccccc2)cc1 | inactive: 2.74% | –
40 | CCC(NC(=O)Nc1nnc(C(F)(F)F)s1)(C(F)(F)F)C(F)(F)F | inactive: -19.6% | –
41 | CC(C)C(C(=O)N1CCOCC1)N1C(=O)c2ccccc2C1=O (centres undefined) | – | inconclusive: 6.31 µM [activator, single point]
42 | COc1cc(OC)c2ccc(=O)oc2c1C(CCN1CCCC(C)C1)c1ccc2c(c1)OCO2 (centres undefined) | inactive: 1.38% | –
43 | CCCNC(=S)N1CCN(c2nc(C)nc3sc4c(c23)CCCC4)CC1 | – | inconclusive: 12.6 µM [activator, partial curve]
44 | O=C(c1ccc([N+](=O)[O-])o1)N1CCc2ccccc2C1 | inactive: -10.5% | –
45 | CCOc1ccc(OCC(O)CNC2CCN(Cc3ccccc3)CC2)cc1 (centres undefined) | inactive: -6.62% | –
46 | O=[N+]([O-])c1ccc(N2CCCCC2)nc1 | – | inconclusive: 22.4 µM [activator, single point]

Row | SMILES | growth rescue (activation) | Potency
47 | CSc1ccc(CN2CCC(C(=O)NCc3ccc(C)cc3)CC2)cc1 | – | inconclusive: 1.78 µM [activator, full curve]
48 | Cc1ccc(C)n1-n1c(C)nc2sc3c(c2c1=O)CCCCC3 | – | inconclusive: 11.2 µM [activator, partial curve]
49 | O=C(C1CCCN(S(=O)(=O)c2cc(Cl)ccc2Cl)C1)N1CCCC1 (centres undefined) | inactive: -4.53% | –
50 | CCCCc1c(O)c2ccccc2n(CCCC)c1=O | – | inconclusive: 12.6 µM [activator, partial curve]
51 | COc1ccc(C2=Nn3c(nnc3-c3ccncc3)SC2)cc1OC | inactive: 6.29% | –
52 | O=C(NCC(c1ccco1)N1CCc2ccccc2C1)C(=O)Nc1cc(F)ccc1F (centres undefined) | – | inconclusive: 31.6 µM [activator, single point]
53 | Cc1ccc2oc(-c3ccc(NC(=O)c4cccnc4)cc3)nc2c1 | – | inconclusive: 11.2 µM [activator, partial curve]
54 | COc1ccc(-c2c[n+]3c(n2-c2ccccc2)SCC3)cc1 | inactive: -0.933% | –
55 | O=c1[nH]c2ccc(Cl)cc2c(-c2ccccc2)c1N1CCN(c2ccccn2)CC1 | – | inconclusive: 3.16 µM [activator, single point]
56 | CC(C)n1cc(C(=O)NC2CC(C)(C)Cc3c2cnn3-c2ccccc2)cn1 (centres undefined) | – | inconclusive: 12.6 µM [activator, partial curve]
57 | O=S(=O)(c1ccccc1Cl)N1CCCC1c1nc(-c2ccc(Cl)cc2)no1 (centres undefined) | – | inconclusive: 35.5 µM [activator, single point]
58 | CCOc1cc2c3c(c1)C1(Nc4ccccc4S1)C(=O)N3C(C)(C)CC2C (centres undefined) | – | inconclusive: 15.8 µM [activator, partial curve]
59 | Clc1ccc(CN2CCN(c3ncnc4scc(-c5cccs5)c34)CC2)cc1 | – | inconclusive: 15.8 µM [activator, single point]
60 | Cc1ccc(S(=O)(=O)N(CC(O)CN(C)C)c2ccccc2)cc1 (centres undefined) | inactive: -0.588% | –
61 | CCN(c1ccccc1)S(=O)(=O)c1cc(C(=O)Nc2ccccc2Cl)ccc1F | – | inconclusive: 22.4 µM [activator, partial curve]
62 | CCOC(=O)C1(Cc2ccccc2C)CCCN(C(=O)CN2C(=O)CSC2=O)C1 (centres undefined) | – | inconclusive: 5.01 µM [activator, full curve]
63 | O=C(NCc1ccco1)c1ccc(COc2cccc3ccccc23)cc1 | inactive: 3.81% | –
64 | Cc1c(C(=O)O)cccc1-c1ccc(/C=N/Nc2ccc(Br)cc2)o1 | – | active: 20 µM
65 | O=C(/C=C/c1ccco1)NC(=S)Nc1ccc(Cl)cn1 | inactive: -0.116% | –
66 | Fc1ccc(-c2cc3nc(-c4ccccc4)cc(N4CCN(CCN5CCOCC5)CC4)n3n2)cc1 | – | inconclusive: 15.8 µM [activator, single point]
67 | Cc1ccccc1NC(=O)CCC(=O)N/N=C/c1ccc(F)cc1 | – | inconclusive: 17.8 µM [activator, single point]
68 | COc1ccc(N2CCCn3c2nc2c3c(=O)n(Cc3ccccc3F)c(=O)n2C)cc1 | – | inconclusive: 5.62 µM [activator, single point]
69 | Cc1ccc(C(=O)Cn2nnc(-c3cccs3)n2)cc1 | inactive: -1.37% | –
